Data from PubChem BioAssay AID493014 (National Center for Advancing Translational Sciences (NCATS), 2011).
The list shows a part of the results. These are further read-outs of the screen, such as a control signal, another cell line or another target. No call is given for them. Most of these compounds were active or inconclusive in the main read-out, so they are no random draw. Potencies come from curve fits of mixed quality, noted in brackets.

Test: qHTS Assay to Find Inhibitors of Chronic Active B-Cell Receptor Signaling
Details: ABC-DLBCL IkBa-CBG/CBR reporter, luminescence ratio (green luciferase fused to IkBa over red control in TMD8 lymphoma cells), 4 h
Procedure, shortened: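 Doxycycline induced both beetle luciferases in TMD8 lymphoma cells; IKK-driven degradation limits the IkappaBalpha-fused green signal, while red luminescence normalises for cell number and nonspecific effects. Compounds tested up to 46 uM, 4 hrs.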

[1] = measured here: CBR red luminescence, cell number
[2] = measured here: IkBa-CBG green luminescence

C=CCN1CCN(C(CCC)c2nnnn2Cc2ccco2)CC1 (stereo unspecified)
AC50 [1]: 3.98 µM [falling, partial curve, poor fit]

COC(=O)[C@@H](NC(=O)c1ccccc1OC1CCN(S(C)(=O)=O)CC1)C(C)C
AC50 [1]: 35.5 µM [rising, single point]

CN(C)c1ccc(/C=N\NC(=S)SCN2C(=O)C3CCC(C)(C2=O)C3(C)C)cc1 (stereo unspecified)
AC50 [1]: 3.66 µM [rising, full curve, poor fit]

CCCCCCOc1ccc(C(=O)NCCCn2ccnc2)cc1
AC50 [1]: 35.5 µM [rising, partial curve, poor fit]

Cc1cc(C(=O)Nc2ccccc2C)on1
AC50 [1]: 11.2 µM [falling, single point]

CNC(=O)c1cc(C(=O)c2ccc(C(F)(F)F)cc2)c[nH]1
AC50 [1]: 7.94 µM [rising, partial curve, poor fit]

CN(Cc1ccccc1)S(=O)(=O)c1ccc(NC(=S)NC(=O)C2CCCC2)cc1
AC50 [1]: 10 µM [rising, partial curve]

COc1cccc(C(=O)NNC2=CC(=O)CC(C)(C)C2)c1
AC50 [1]: 8.91 µM [falling, partial curve]

Cc1n[nH]c(=O)n1-c1ccc(OCc2ccccc2)cc1
AC50 [1]: 1.26 µM [falling, partial curve]

Fc1ccc(Nc2nc(N3CCOCC3)c3ccccc3n2)cc1
AC50 [1]: 11.2 µM [falling, partial curve]

O=C(/C=C/c1ccc2c(c1)OCO2)Nc1c(C(=O)O)[nH]c2ccccc12
AC50 [1]: 10.3 µM [falling, partial curve, poor fit]

CC(c1ccccc1)n1c(-c2cccs2)nc2c(c(=O)c3ccccc3n2C)c1=O (stereo unspecified)
AC50 [1]: 0.1 µM [rising, full curve, poor fit]

c1ccc(-n2ncc3c2ncn2nc(-c4ccco4)nc32)cc1
AC50 [1]: 10 µM [falling, single point]

Cc1[nH]c2ccccc2c1C(=O)COc1ccccc1F
AC50 [1]: 1.12 µM [falling, partial curve, poor fit]

Cc1cc(-c2ccccc2)n2nc(N)nc2n1
AC50 [1]: 12.6 µM [falling, single point] | AC50 [2]: 17.8 µM [rising, partial curve, poor fit]

COc1cc(/C=N/NC(=O)c2c(-c3ccccc3)noc2C)cc(OC)c1OC
AC50 [1]: 29.1 µM [rising, single point] | AC50 [2]: 23.1 µM [falling, single point]

O=C(O)c1ccc(/C=N/Nc2nnnn2-c2ccccc2)cc1
AC50 [1]: 20.6 µM [falling, partial curve]

Cc1cc(C(=O)N/N=C/c2ccc(-c3cccc(Cl)c3Cl)o2)n[nH]1
AC50 [1]: 0.58 µM [rising, full curve]

Cc1nc(N[C@@H](Cc2c[nH]c3ccccc23)C(=O)O)c2oc3ccccc3c2n1
AC50 [1]: 2.82 µM [falling, full curve]

CCOC(=O)N1CCc2[nH]c3ccc(C)cc3c2C1
AC50 [1]: 3.98 µM [falling, full curve, poor fit]

COc1ccc(Br)cc1C1N2CC3(C)CN1CC(C)(C2)C3=O (stereo unspecified)
AC50 [1]: 20.6 µM [rising, single point]

COc1ccc(C(=O)N/N=C(\C)CC(=O)Nc2ccc3c(c2)OCCO3)c(OC)c1
AC50 [1]: 3.55 µM [falling, partial curve, poor fit]

CCCn1nc(C(=O)N2CC(=O)Nc3ccccc32)c2ccccc2c1=O
AC50 [1]: 12.6 µM [rising, single point]

Cc1ccc(-c2nc(CN(C)C3CCOCC3)c(C)o2)s1
AC50 [1]: 10 µM [rising, partial curve, poor fit]

COC(=O)CSc1ncnc2c1sc1nc(N3CCOCC3)c3c(c12)CCCC3
AC50 [1]: 3.16 µM [rising, full curve, poor fit]

COCCCNC(=S)N/N=C/c1ccccc1O
AC50 [1]: 0.355 µM [falling, full curve, poor fit]

CCOC(=O)CSC1=N/C(=C/c2ccc(-n3cncn3)cc2)C(=O)N1C(C)=O
AC50 [1]: 3.55 µM [rising, partial curve, poor fit]

CCCCCCNC(=O)Cc1nc2nc(C)cc(C)n2n1
AC50 [1]: 22.4 µM [rising, single point]

c1ccc(-c2csc(N3CCN(c4ccccn4)CC3)n2)cc1
AC50 [1]: 14.1 µM [falling, single point]

CCOC(=O)c1c(C)cc(C)[nH]c1=O
AC50 [1]: 11.2 µM [rising, partial curve, poor fit]

O=C(Nc1ccc(OC(F)(F)F)cc1)C1CCCN(S(=O)(=O)c2cnc[nH]2)C1 (stereo unspecified)
AC50 [1]: 11.2 µM [falling, single point]

CCn1cc(C(=O)O)c(=O)c2cnc(N3CCN(C(=S)Nc4ccc(F)cc4)CC3)nc21
AC50 [1]: 5.62 µM [rising, full curve, poor fit]

C=CCn1c(SCC(=O)NCCc2ccccc2)nnc1C1CC1
AC50 [1]: 0.164 µM [rising, full curve]

C=C(C)CNC(=S)N=Nc1c(O)[nH]c2ccc([N+](=O)[O-])cc12
AC50 [2]: 22.4 µM [falling, partial curve, poor fit]

O=C(N/N=C/c1ccc(Br)s1)c1ccncc1
AC50 [1]: 31.6 µM [falling, single point] | AC50 [2]: 25.1 µM [falling, single point]

Cc1cccc(NC(=O)CNC(=O)COc2cccnc2[N+](=O)[O-])c1C
AC50 [1]: 29.1 µM [falling, single point]

C/C(CCC(=O)OC[C@H]1O[C@H](C#Cc2ccccc2)C=C[C@@H]1Oc1ccc(C)cc1)=N\OC[C@@H](O)[C@H]1O[C@@H]2OC(C)(C)O[C@@H]2[C@H]1O
AC50 [1]: 29.1 µM [falling, single point]

Cc1cccc(NC(=O)c2cc(S(=O)(=O)N3CCc4ccccc43)ccc2F)c1C
AC50 [1]: 11.2 µM [falling, partial curve, poor fit]

COC(=O)CN1C(=O)[C@H]2[C@@H](c3ccc(C)o3)N3C(=O)CN(CCO)C(=O)[C@@]3(C)[C@H]2C1=O
AC50 [1]: 5.01 µM [falling, single point]

CCc1ccc(NC(=O)Nc2ccc3c(c2)N(C)C(=O)CS3)cc1
AC50 [1]: 2.91 µM [rising, single point]

Nc1n[nH]c(=S)n1/N=C1/C(=O)Nc2ccccc21
AC50 [1]: 7.94 µM [falling, partial curve]

CSCCC(NC(N)=O)C(=O)NCc1ccc(Cl)cc1 (stereo unspecified)
AC50 [1]: 29.1 µM [rising, single point]

CCC(=O)Nc1cc(C)c(O)c(-c2nc3ncccc3o2)c1
AC50 [1]: 35.5 µM [falling, single point]

O=C(c1ccco1)N1CCN(Cc2nc(-c3cccs3)no2)CC1
AC50 [1]: 17.8 µM [rising, partial curve, poor fit]

CCN(CC)CCNC(=O)c1cc2c(s1)-c1ccccc1SC2
AC50 [1]: 28.2 µM [falling, single point]

COc1cccc(-n2nc(C(C)=O)c(=O)[nH]c2=O)c1
AC50 [1]: 0.316 µM [rising, full curve, poor fit]

O=C(CSc1nc2ccccc2c(=O)n1-c1ccccc1F)N1CCOCC1
AC50 [2]: 2.91 µM [falling, partial curve, poor fit]

O=C(Cn1nc(-c2ccccc2)ccc1=O)NCCCN1CCOCC1
AC50 [1]: 5.62 µM [rising, single point]

COC(=O)c1cc(CSc2nc3ccccc3[nH]2)oc1C
AC50 [1]: 1.64 µM [falling, full curve]

COc1cc2ccccc2cc1C(=O)Nc1sc2c(c1C(N)=O)CCN(C(C)C)C2
AC50 [1]: 17.8 µM [falling, partial curve, poor fit]

CCOc1ccc(NC(=O)NCc2ccccn2)cc1
AC50 [1]: 35.5 µM [falling, single point]

O=C1c2cccc(OCC(=O)N3CCCc4ccccc43)c2CCN1Cc1ccc(F)cc1
AC50 [1]: 20.6 µM [falling, partial curve]

CCC(Sc1ncccc1C(=O)Oc1cccc([N+](=O)[O-])c1)C(=O)Nc1ccccc1OC (stereo unspecified)
AC50 [1]: 3.26 µM [falling, partial curve, poor fit]

CCC(c1nnc(SCC(=O)Nc2cc(S(C)(=O)=O)ccc2Cl)n1Cc1ccccc1)N(C)C (stereo unspecified)
AC50 [1]: 17.8 µM [rising, partial curve, poor fit]

Nc1nc(SCC(=O)NC2CCCCCC2)[nH]c(=O)c1-c1ccccc1
AC50 [1]: 18.4 µM [falling, partial curve, poor fit]

COC(=O)c1c(C(=O)OC)c(C)n(Cc2cccnc2)c1C
AC50 [1]: 6.51 µM [rising, single point]

CCOCCCNC(=S)N1CCC(NC(=O)C2CCCCC2)CC1
AC50 [1]: 0.562 µM [rising, full curve, poor fit]

CCOC(=O)N1CC=C2C(C#N)=C(N)C(C#N)(C#N)[C@H](c3cccs3)[C@H]2C1
AC50 [1]: 2.31 µM [falling, full curve, poor fit]

NC(=S)N/N=C/C=C/c1ccccc1
AC50 [2]: 23.1 µM [falling, single point]

CSCCC(NC(=O)c1ccc(Cl)cc1Cl)C(=O)OC1CCCCC1=O (stereo unspecified)
AC50 [1]: 1.64 µM [rising, partial curve, poor fit]

CCn1cc(/C=N\NC(=O)c2ccccc2Cl)cn1
AC50 [1]: 13 µM [falling, partial curve]

CCCCn1c(=O)[nH]c(=O)c2c1nc(Cn1ncc(Cl)c(Cl)c1=O)n2CCC
AC50 [1]: 12.6 µM [falling, partial curve] | AC50 [2]: 35.5 µM [rising, partial curve, poor fit]
